Test results published in PubChem BioAssay AID1671190 (National Center for Advancing Translational Sciences (NCATS), 2021).
Hit rate of the full screen: of about 580,000 compounds, about 6,100 (1.1%) were called active. The shares of active, inactive and inconclusive entries below differ from those in the screen. The call rests on the fitted dose curve; in most records, active means well fitted inhibition curve with a large enough effect; inconclusive means small, poorly fitted or top-dose-only effect, or another doubt; inactive means no such curve, though single readings can be large or run the other way. A potency beside an inconclusive call is a rough fit, not a confirmed value.

Chains of the proteins cited; added tags and fusions are not shown. Lines headed by an entry give the natural chain unless they say otherwise; changes in a name come on top.
UniProt P18054: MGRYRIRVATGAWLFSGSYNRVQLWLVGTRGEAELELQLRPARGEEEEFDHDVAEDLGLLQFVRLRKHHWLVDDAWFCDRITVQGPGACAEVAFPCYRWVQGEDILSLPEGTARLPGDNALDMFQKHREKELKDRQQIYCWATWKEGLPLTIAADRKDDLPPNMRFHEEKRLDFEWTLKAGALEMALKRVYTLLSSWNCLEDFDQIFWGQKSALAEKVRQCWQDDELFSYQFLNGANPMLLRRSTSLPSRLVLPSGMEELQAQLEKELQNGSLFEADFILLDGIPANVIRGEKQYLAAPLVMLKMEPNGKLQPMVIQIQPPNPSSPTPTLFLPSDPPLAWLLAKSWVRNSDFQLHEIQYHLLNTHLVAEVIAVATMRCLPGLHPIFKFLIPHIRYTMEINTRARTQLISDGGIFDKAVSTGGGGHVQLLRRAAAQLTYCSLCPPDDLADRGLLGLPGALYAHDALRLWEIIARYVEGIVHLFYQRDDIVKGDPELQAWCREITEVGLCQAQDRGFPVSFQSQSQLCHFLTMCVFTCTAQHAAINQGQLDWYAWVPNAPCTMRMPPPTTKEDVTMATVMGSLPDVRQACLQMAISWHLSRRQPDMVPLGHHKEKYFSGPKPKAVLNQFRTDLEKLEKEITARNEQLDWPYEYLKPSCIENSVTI

Molecular target: Polyunsaturated fatty acid lipoxygenase ALOX12 (Homo sapiens) (UniProt P18054)
Test: Primary qHTS assay for inhibitors of human arachidonate 12S-lipoxygenase (ALOX12): Round 2
Details: purified 12hLO, xylenol orange hydroperoxide absorbance; activity change, negative = inhibition: at 108 µM (top of the series) unless noted
Procedure, shortened: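 Hydroperoxide product was detected by ferrous iron/xylenol orange as the 573 to 405 nm absorbance ratio. Arachidonic acid at 40 uM (final) was turned over for 30 min at room temperature by 150 nM human 12hLO, pH 7.0 Hepes buffer, after 15 min compound preincubation.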
On the % scale 0 is the no-effect control and ±100 the full control effect; potency means the concentration at half of the fitted maximal effect.

Row | SMILES | Potency | activity change, negative = inhibition
1 | COc1ccc(C(c2c(C)[nH]n(C(N)=S)c2=O)C(C#N)C#N)cc1 (stereo not given) | inconclusive: 25.1 µM [inhibitor, partial curve, poor fit] | 
2 | CC1=C(C(=O)OCC(C)C)C(c2ccc(Br)s2)NC(=O)N1 (stereo not given) |  | inactive: -10.9%
3 | O=C(c1cccc(-c2cncc3nccn23)c1)N1CCOCC1 | inconclusive: 4.47 µM [inhibitor, full curve, poor fit] | 
4 | C=CCC[C@@H](Cc1ccc(F)cc1)C(=O)OC[C@H](Cc1c[nH]c2ccccc12)NC(=O)[C@H](CC=C)CC(=O)N(CCO)Cc1ccccc1 | inconclusive: 89.1 µM [inhibitor, single point] | 
5 | CCc1nc2ccccc2c(C(=O)OC(C)C(=O)NC(N)=O)c1C (stereo not given) | inconclusive: 89.1 µM [inhibitor, single point] | 
6 | N#CC(=Cc1ccc(O)c(O)c1)C(=O)NCc1ccccc1 |  | inactive: 27.2% [at 57.4 µM]
7 | Cc1c(O)nc(SC2CC(=O)N(c3ccccc3)C2=O)[nH]c1=O (stereo not given) | inconclusive: 50.1 µM [inhibitor, partial curve, poor fit] | 
8 | O=C(CN1CCN(S(=O)(=O)c2ccc(F)cc2)CC1)Nc1ccc(Cl)c(C(F)(F)F)c1 |  | inactive: 0%
9 | O=C(NCC1(N2CCOCC2)CCCCC1)c1cnn(-c2nccc(-c3cccs3)n2)c1C1CC1 |  | inactive: -2.51%
10 | CC1=C(C#N)C(c2ccc(O)cc2)C(C#N)=C(C)N1 | inconclusive: 126 µM [inhibitor, single point] | 
11 | COC(=O)c1cn(C(=O)c2ccc(OC)cc2)c2ccccc12 |  | inactive: -4.51%
12 | CC1CCCCN1S(=O)(=O)c1ccc2nc(N3CCCCCC3)ccc2c1 (stereo not given) | active: 12.6 µM | 
13 | COc1ccc(CN2CCN(S(=O)(=O)c3ccc(C)cc3)CC2)cc1Br | inconclusive: 1.12 µM [inhibitor, full curve, poor fit] | 
14 | CCc1ccccc1NC(=O)CSc1ccsc1[N+](=O)[O-] | inconclusive: 56.2 µM [inhibitor, partial curve, poor fit] | 
15 | Cc1ccc2c(c1)C(c1ccc(F)cc1)N(C(=O)c1cccc(C(F)(F)F)c1)CC(=O)N2 (stereo not given) | inconclusive: 141 µM [inhibitor, partial curve, poor fit] | 
16 | CC(C)(C)c1coc2cc3o/c(=N/O)c4c(c3cc12)CCC4 | inconclusive: 44.7 µM [inhibitor, partial curve, poor fit] | 
17 | CCCOC(=O)c1ccc(NC(=O)CCC(=O)OCC)cc1 | inconclusive: 112 µM [inhibitor, single point] | 
18 | Cc1ccn(-c2ccc([N+](=O)[O-])cc2)n1 |  | inactive: -12.8%
19 | CC1CCC(COC(=O)C[N+]2(C)CCCCC2)C(C)C1 (stereo not given) | active: 22.4 µM | 
20 | S=c1[nH]nc(-c2ccccn2)n1/N=C/c1ccc(Br)s1 | inconclusive: 11.2 µM [inhibitor, partial curve, poor fit] | 
21 | COC1=C(C)C(=O)C2=C(C1=O)C1C3CC4=C(C(=O)C(OC)=C(C)C4=O)C(CNC(=O)C(C)=O)N3C(C#N)C(C2)N1C (stereo not given) |  | inactive: -33.9%
22 | C=CCn1c(NCc2ccc(OC)cc2)nc2ccccc21 |  | inactive: 314%
23 | CCOc1cccc(CN2CCCC3(Cc4ccccc4CNC3=O)C2)c1 (stereo not given) | inconclusive: 31.6 µM [inhibitor, full curve] | 

Row | SMILES | Potency | activity change, negative = inhibition
24 | CN(CCO)c1cc(NCCCN2CCC(Cc3ccccc3)CC2)c2nonc2c1[N+](=O)[O-] | inconclusive: 79.4 µM [inhibitor, single point] | 
25 | CCN(CC)c1ccc(/C=C/c2cccc[n+]2C)c(OC)c1 | inconclusive: 28.2 µM [inhibitor, partial curve, poor fit] | 
26 | O=Cc1c(-c2cc(Cl)ccc2Cl)[nH]c2ccccc12 | inconclusive: 44.7 µM [inhibitor, full curve, poor fit] | 
27 | Cc1nc(-c2ccccc2Cl)sc1C(=O)/C=C/N(C)C | inconclusive: 44.7 µM [inhibitor, partial curve, poor fit] | 
28 | Cc1ccc2nc(/C(C#N)=C\c3ccc(C)s3)[nH]c2c1 | inconclusive: 56.2 µM [inhibitor, partial curve, poor fit] | 
29 | Cc1sc2ncnc(N3CCC(C(=O)Nc4cc(C(F)(F)F)ccc4OCC(F)(F)F)CC3)c2c1C |  | inactive: -3.71%
30 | COc1cccc(/C=C/C(=O)OCC(=O)c2ccccc2)c1OC |  | inactive: 5.47%
31 | CC(C)=CC(=O)Nc1ccc(CC(=O)N2CCOCC2)cc1 | inconclusive: 89.1 µM [inhibitor, single point] | 
32 | C=CC[C@@H](CC(=O)N[C@@H](CO)Cc1ccccc1)C(=O)N[C@@H](COC(=O)[C@@H](CC=C)CC(=O)OC(C)(C)C)Cc1c[nH]c2ccccc12 | inconclusive: 141 µM [inhibitor, partial curve, poor fit] | 
33 | COc1ccc(-c2cc3ccc(OC(=O)c4ccco4)cc3oc2=O)cc1 |  | inactive: 11.7%
34 | CCn1c(Cc2ccccc2)nnc1SCC(=O)Nc1nc(C)cs1 | inconclusive: 25.1 µM [inhibitor, partial curve, poor fit] | 
35 | CCCC(C)NC(=O)c1ccccc1-c1ncc(-c2ccccc2F)o1 (stereo not given) |  | inactive: 5.21%
36 | Cc1ccc(NC(=O)CC(N)=S)cc1 |  | inactive: 10.7%
37 | COc1ccc(OCC(=O)Nc2ccc(N3CCOCC3)cc2)cc1 | inconclusive: 70.8 µM [inhibitor, partial curve, poor fit] | 
38 | O=C(c1ccccc1)c1ccccc1N1C(=O)C=CC1=O | active: 7.94 µM | 
39 | Cn1c(=O)[nH]c(=O)c2c1nc(N)n2Cc1ccccc1 | inconclusive: 0.355 µM [inhibitor, full curve, poor fit] | 
40 | O=C(CCn1cnc2onc(-c3ccc(F)cc3)c2c1=O)N1CCN(c2ccccc2F)CC1 | inconclusive: 141 µM [inhibitor, partial curve, poor fit] | 
41 | O=C(NCc1ccccc1)C(c1ccc(-c2ccccc2)cc1)n1c(=O)c(-c2ccco2)nc2ccccc21 (stereo not given) | active: 14.1 µM | 
42 | Cc1oc(-c2ccccc2)nc1CNC(=O)c1ccccc1 |  | inactive: -19.1%
43 | CCCc1c(C)c2ccc(OCC(C)=O)cc2oc1=O |  | inactive: 26.8%
44 | CCOC(=O)C(N)c1ccc(Cl)cc1 (stereo not given) |  | inactive: -52.9%
45 | O=C(CCS(=O)(=O)Cc1ccccc1)Nc1ncc([N+](=O)[O-])s1 |  | inactive: 436%

Some of the entries above, set out differently:
Row	SMILES	Potency	activity change, negative = inhibition
42	Cc1oc(-c2ccccc2)nc1CNC(=O)c1ccccc1		inactive: -19.1%
43	CCCc1c(C)c2ccc(OCC(C)=O)cc2oc1=O		inactive: 26.8%
44	CCOC(=O)C(N)c1ccc(Cl)cc1 (stereo not given)		inactive: -52.9%
